Data reported in patent US10376520B2, “Methods for the treatment of cardiovascular disorders” (Galapagos NV, priority 2015, dated 2019).
Further values from the same series stand in other lists.

Tested on: RA patients
Test: Total cholesterol determination, Study 1 (RA patients with inadequate response to methotrexate, add-on to MTX)
Format: in vivo, human
Conditions: for [total cholesterol] Median CFB: Study 1 24 weeks results
Experimental: Double-blind, placebo-controlled add on study in subjects with moderately to severely active RA who have an inadequate response to methotrexate (MTX) (oral or parenteral).
595 subjects randomized to one of 6 dose regimens of Compound 1 (dosed as a [Compound 1:HCl:3H2O]) (3 dose levels administered either once or twice daily) or placebo on top of each subject's stable dose of MTX.
Compound 1 (dosed as a [Compound 1:HCl:3H2O]) is dosed for twelve weeks once daily (q.d.) (50 mg, 100 mg or 200 mg) or twice daily (b.i.d.) (25 mg, 50 mg or 100 mg); or placebo.
At Week 12, the subjects on placebo who have not achieved 20% improvement in swollen joint count (SJC66) and tender joint count (TJC68) are re-randomized automatically to receive Compound 1 (dosed as a [Compound 1:HCl:3H2O]) either at 100 mg q.d. or 50 mg b.i.d. doses in a blinded fashion; subjects on 50 mg q.d. who have not achieved 20% improvement in SJC66 and TJC68 will be assigned to 100 mg q.d. and subjects on 25 mg b.i.d. that have not achieved a 20% improvement in SJC66 and TJC68 will be assigned to 50 mg b.i.d. Subjects who switch treatment at week 12 are handled as if they discontinued at week 12 for the purpose of statistical analysis, whereas subjects in the other groups will maintain their randomized treatment until Week 24.
This method is based on the determination of Δ^4 cholestenone after enzymatic cleavage of the cholesterol ester by cholesterol esterase, conversion of cholesterol by cholesterol oxidase, and subsequent measurement by the Trinder reaction of the hydrogen peroxide formed (Allain et al., 1974).
Cholesterol esters are cleaved by the action of cholesterol esterase to yield free cholesterol and fatty acids. Cholesterol oxidase then catalyzes the oxidation of cholesterol to cholest-4-en-3-one and hydrogen peroxide. In the presence of peroxidase, the hydrogen peroxide formed effects the oxidative coupling of phenol and 4-aminophenazone to form a red quinone-imine dye. The color intensity of the dye formed is directly proportional to the cholesterol concentration. It is determined by measuring the increase in absorbance.
Human serum and plasma samples cholesterol determination was done on a Roche/Hitachi Cobas c 701/702 system which automatically calculate the analyte concentration of each sample.

O=C(Nc1nc2cccc(-c3ccc(CN4CCS(=O)(=O)CC4)cc3)n2n1)C1CC1 [Compound 1, cyclopropanecarboxylic acid {5-[4-(1,1-dioxo-thiomorpholin-4-ylmethyl)-phenyl]-[1,2,4]triazolo[1,5-a]pyridin-2yl}-amide]
[total cholesterol] Median CFB (continued 25 mg b.i.d, week 1): 0.15 mmol/L | [total cholesterol] Median CFB (continued 25 mg b.i.d, week 2): 0.10 mmol/L | [total cholesterol] Median CFB (continued 25 mg b.i.d, week 4): 0.10 mmol/L | [total cholesterol] Median CFB (continued 25 mg b.i.d, week 8): 0.05 mmol/L | [total cholesterol] Median CFB (continued 25 mg b.i.d, week 12): 0.24 mmol/L | [total cholesterol] Median CFB (continued 25 mg b.i.d, week 16): 0.10 mmol/L | [total cholesterol] Median CFB (continued 25 mg b.i.d, week 20): 0.25 mmol/L | [total cholesterol] Median CFB (continued 25 mg b.i.d, week 24): 0.19 mmol/L | [total cholesterol] Median CFB (continued 50 mg b.i.d., week 1): 0.21 mmol/L | [total cholesterol] Median CFB (continued 50 mg b.i.d., week 2): 0.17 mmol/L | [total cholesterol] Median CFB (continued 50 mg b.i.d., week 4): 0.28 mmol/L | [total cholesterol] Median CFB (continued 50 mg b.i.d., week 8): 0.22 mmol/L | [total cholesterol] Median CFB (continued 50 mg b.i.d., week 12): 0.23 mmol/L | [total cholesterol] Median CFB (continued 50 mg b.i.d., week 16): 0.22 mmol/L | [total cholesterol] Median CFB (continued 50 mg b.i.d., week 20): 0.37 mmol/L | [total cholesterol] Median CFB (continued 50 mg b.i.d., week 24): 0.26 mmol/L | [total cholesterol] Median CFB (continued 100 mg b.i.d., week 1): 0.28 mmol/L | [total cholesterol] Median CFB (continued 100 mg b.i.d., week 2): 0.31 mmol/L | [total cholesterol] Median CFB (continued 100 mg b.i.d., week 4): 0.45 mmol/L | [total cholesterol] Median CFB (continued 100 mg b.i.d., week 8): 0.55 mmol/L | [total cholesterol] Median CFB (continued 100 mg b.i.d., week 12): 0.80 mmol/L | [total cholesterol] Median CFB (continued 100 mg b.i.d., week 16): 0.53 mmol/L | [total cholesterol] Median CFB (continued 100 mg b.i.d., week 20): 0.50 mmol/L | [total cholesterol] Median CFB (continued 100 mg b.i.d., week 24): 0.42 mmol/L | [total cholesterol] Median CFB (continued 200 mg q.d., week 1): 0.25 mmol/L | [total cholesterol] Median CFB (continued 200 mg q.d., week 2): 0.34 mmol/L | [total cholesterol] Median CFB (continued 200 mg q.d., week 4): 0.33 mmol/L | [total cholesterol] Median CFB (continued 200 mg q.d., week 8): 0.54 mmol/L | [total cholesterol] Median CFB (continued 200 mg q.d., week 12): 0.36 mmol/L | [total cholesterol] Median CFB (continued 200 mg q.d., week 16): 0.34 mmol/L | [total cholesterol] Median CFB (continued 200 mg q.d., week 20): 0.47 mmol/L | [total cholesterol] Median CFB (increased from 25 mg b.i.d. to 50 mg b.i.d at 12 weeks, week 1): -0.07 mmol/L | [total cholesterol] Median CFB (increased from 25 mg b.i.d. to 50 mg b.i.d at 12 weeks, week 2): 0.07 mmol/L | [total cholesterol] Median CFB (increased from 25 mg b.i.d. to 50 mg b.i.d at 12 weeks, week 4): -0.15 mmol/L | [total cholesterol] Median CFB (increased from 25 mg b.i.d. to 50 mg b.i.d at 12 weeks, week 8): -0.23 mmol/L | [total cholesterol] Median CFB (increased from 25 mg b.i.d. to 50 mg b.i.d at 12 weeks, week 12): -0.12 mmol/L | [total cholesterol] Median CFB (increased from 25 mg b.i.d. to 50 mg b.i.d at 12 weeks, week 16): 0.09 mmol/L | [total cholesterol] Median CFB (increased from 25 mg b.i.d. to 50 mg b.i.d at 12 weeks, week 20): -0.29 mmol/L | [total cholesterol] Median CFB (increased from 25 mg b.i.d. to 50 mg b.i.d at 12 weeks, week 24): 0.08 mmol/L | [total cholesterol] Median CFB (increased from 50 mg q.d. to 100 mg q.d. at 12 weeks, week 1): 0.05 mmol/L | [total cholesterol] Median CFB (increased from 50 mg q.d. to 100 mg q.d. at 12 weeks, week 2): 0.15 mmol/L | [total cholesterol] Median CFB (increased from 50 mg q.d. to 100 mg q.d. at 12 weeks, week 4): 0.18 mmol/L | [total cholesterol] Median CFB (increased from 50 mg q.d. to 100 mg q.d. at 12 weeks, week 8): 0.16 mmol/L | [total cholesterol] Median CFB (increased from 50 mg q.d. to 100 mg q.d. at 12 weeks, week 12): 0.05 mmol/L | [total cholesterol] Median CFB (increased from 50 mg q.d. to 100 mg q.d. at 12 weeks, week 16): 0.40 mmol/L | [total cholesterol] Median CFB (increased from 50 mg q.d. to 100 mg q.d. at 12 weeks, week 20): 0.35 mmol/L | [total cholesterol] Median CFB (increased from 50 mg q.d. to 100 mg q.d. at 12 weeks, week 24): 0.31 mmol/L | [total cholesterol] Median CFB (placebo switched to 100 mg q.d. at week 12, week 16): -0.30 mmol/L | [total cholesterol] Median CFB (placebo switched to 100 mg q.d. at week 12, week 20): -0.20 mmol/L | [total cholesterol] Median CFB (placebo switched to 100 mg q.d. at week 12, week 24): -0.15 mmol/L | [total cholesterol] Mean percentage CFB - 24 weeks results (from 25 mg b.i.d. to 50 mg b.i.d at 12 weeks (N = 17), week 20): −5.02% | [total cholesterol] Mean percentage CFB - 24 weeks results (placebo switched to 100 mg q.d. at week 12 (N = 15), week 16): −3.17% | [total cholesterol] Mean percentage CFB - 24 weeks results (placebo switched to 100 mg q.d. at week 12 (N = 15), week 20): −3.11% | [total cholesterol] Mean percentage CFB - 24 weeks results (placebo switched to 100 mg q.d. at week 12 (N = 15), week 24): −4.73%
